PubChem BioAssay AID1259424, University of Nebraska Medical Center, 2018
Screen: 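Seek colon cancer survival genes behaving like KSR1, using a six-gene signature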 (primary screen). System: human HCT116 colon cancer cells. Reagents: siRNA pool against human genes, 50 nM. Detection: 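Log2 levels of six mRNAs (branched-DNA multiplex), adjusted by two reference genes and the non-targeting median, then scored against the average KSR1 knockdown pattern as Pearson r and euclidean distance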. Direction: mean correlation with KSR1 profile: higher = expression change more like KSR1 knockdown; mean distance from KSR1 profile: higher = expression change less like KSR1 knockdown.
In all, the deposit lists about 14,000 reagents; shown is a random part of them. 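Higher correlation or smaller distance means closer resemblance to KSR1 loss; control wells, including KSR1 knockdowns, recur on many plates.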 Not all columns of the deposit are shown. Not given: the time to read-out.

target	mean correlation with KSR1 profile	mean distance from KSR1 profile
GPATCH8	-0.373	2.43
CLIC1	-0.597	3.52
ZNF671	-0.378	2.53
CCDC25	-0.703	4
ISOC1	0.172	1.27
LRPPRC	0.418	2.61
PARS2	-0.872	1.93
MDK	0.254	1.75
RPAP3	0.474	4.04
PIK3R2	-0.0887	3.4
UPK1A	0.317	1.86
FLJ21369 (retired record)	0.147	1.99
MR1	0.392	1.46

Reformatted: 6 of the entries above.
| target | mean correlation with KSR1 profile | mean distance from KSR1 profile |
| --- | --- | --- |
| LRPPRC | 0.418 | 2.61 |
| PARS2 | -0.872 | 1.93 |
| MDK | 0.254 | 1.75 |
| RPAP3 | 0.474 | 4.04 |
| PIK3R2 | -0.0887 | 3.4 |
| UPK1A | 0.317 | 1.86 |

More records follow:
target	mean correlation with KSR1 profile	mean distance from KSR1 profile
DENND1B	-0.272	2.63
IFNA4	0.251	2.15
SPAG9	-0.556	3.35
IL1R1	0.0379	2.56
MAPK9	0.297	1.33
FAM168A	-0.685	2.61
SLAMF7	-0.467	1.74
UTRN	-0.0446	1.42
SPCS3	0.0117	0.904
SETD6	-0.0327	2.93
RANBP1	-0.312	1.8
ELAVL1	0.355	1.54
MTERF2	0.772	2.12
H2AC20	0.575	1.46
ITPA	0.178	4.03
INTU	0.0447	1.71
MAFF	0.766	1.04
ISLR	-0.104	2.24
ARL4D	0.225	1.41
KLF1	0.388	2.06
GOSR1	-0.273	2.29
